Test results: publication PMC10470772
These are yes or no findings as the source states them, for the method shown. Binding seen in cells or lysates may run through a third protein. Binding can be weak; no strength is given.

Target: Mus musculus papillomavirus 1 (MmuPV1) E8^E2-HA, wild type (Mus musculus papillomavirus 1 (MmuPV1))
Assay: co-IP; HeLa cells transfected with HA-tagged E8^E2 expression vectors; endogenous HDAC3 and TBL1; lysed in IP-buffer (50 mM HEPES pH 7.9, 150 mM NaCl, 0.3% Igepal 630, 1 mM DTT); precipitated with magnetic anti-HA beads; immunoblot with anti-HDAC3, anti-TBL1 and anti-HA

B1: endogenous TBL1 (transducin beta-like protein 1) (protein, UniProt O60907 1-577)
chain: MTELAGASSSCCHRPAGRGAMQSVLHHFQRLRGREGGSHFINTSSPRGEAKMSITSDEVNFLVYRYLQESGFSHSAFTFGIESHISQSNINGTLVPPAALISILQKGLQYVEAEISINEDGTVFDGRPIESLSLIDAVMPDVVQTRQQAFREKLAQQQASAAAAAAAATAAATAATTTSAGVSHQNPSKNREATVNGEENRAHSVNNHAKPMEIDGEVEIPSSKATVLRGHESEVFICAWNPVSDLLASGSGDSTARIWNLNENSNGGSTQLVLRHCIREGGHDVPSNKDVTSLDWNTNGTLLATGSYDGFARIWTEDGNLASTLGQHKGPIFALKWNRKGNYILSAGVDKTTIIWDAHTGEAKQQFPFHSAPALDVDWQNNTTFASCSTDMCIHVCRLGCDRPVKTFQGHTNEVNAIKWDPSGMLLASCSDDMTLKIWSMKQEVCIHDLQAHNKEIYTIKWSPTGPATSNPNSNIMLASASFDSTVRLWDIERGVCTHTLTKHQEPVYSVAFSPDGKYLASGSFDKCVHIWNTQSGNLVHSYRGTGGIFEVCWNARGDKVGASASDGSVCVLDLRK
binding: binds
